# Source: the supplement of paper PMC12067093, “Discovery and optimisation of a covalent ligand for TRIM25 and its application to targeted protein ubiquitination” (Chemical Science, 2025)
# Some of the results follow.
# How the values were obtained:
# [1] = target: PYCR1_P32322_95_HIVVSCAAGVTISSIEK (UniProt P32322); assay: probe-labelled cysteine peptide fold change vs DMSO (competition) (log2 fold change); higher = less target engagement (more negative = stronger competition); settings: THP-1, incubation time: 4 h
# [2] = target: PYCR2_Q96C36_95_HIVVSCAAGVTISSVEK (UniProt Q96C36); assay: as above; settings: THP-1, incubation time: 4 h
# 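Further: competitive profiling in live THP-1 cells: cysteine peptides tagged with an iodoacetamide desthiobiotin (IA-DTB) probe, intensity after compound treatment relative to DMSO-treated cells.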
smiles,measurement,setting,value
Cc1cc(C(=O)N2CCCN(C(=O)CCl)CC2)ccc1-c1ccccc1 [compound 10],probe-labelled cysteine peptide fold change,[1]; 10 µM,0.0538
same,probe-labelled cysteine peptide fold change,[1]; 50 µM,0.149
same,probe-labelled cysteine peptide fold change,[2]; 10 µM,0.169
same,probe-labelled cysteine peptide fold change,[2]; 50 µM,0.286
